In PubChem BioAssay AID186 (DTP/NCI, 2004):
Shown are survivors of the treated group in tumour-free mice. Survivors were counted at the toxicity check, usually on the fifth day, unless a day is given; later deaths do not show. Schedules are NCI's codes, read here as Q, the interval in days (D) or hours (H), X, the number of doses.

System: B6D2F1 mice, nontumored toxicity test, survival
Experiment: NCI In Vivo Anticancer Drug Screen. Data for tumor model Nontumored Animals (Toxicity Test) in B6D2F1 (BDF1) mice
Settings: vehicle: saline with Tween-80

## CC/C(=C(/CC)c1ccc(O)cc1)c1ccc(O)cc1
dose: 8.0 mg/kg/injection, schedule: Q03HX016 (ip)
  survivor count: 8 of 8
dose: 8.0 mg/kg/injection, schedule: Q03HX024 (ip)
  survivor count: 6 of 8
dose: 16.0 mg/kg/injection, schedule: Q01DX009 (ip)
  survivor count: 8 of 8
dose: 16.0 mg/kg/injection, schedule: Q03HX008 (ip)
  survivor count: 8 of 8
dose: 16.0 mg/kg/injection, schedule: Q03HX016 (ip)
  survivor count: 8 of 8
dose: 16.0 mg/kg/injection, schedule: Q03HX024 (ip)
  survivor count: 8 of 8
dose: 32.0 mg/kg/injection, schedule: Q01DX009 (ip)
  survivor count: 8 of 8
dose: 32.0 mg/kg/injection, schedule: Q03HX008 (ip)
  survivor count: 6 of 8
dose: 32.0 mg/kg/injection, schedule: Q03HX016 (ip)
  survivor count: 6 of 8
dose: 32.0 mg/kg/injection, schedule: Q03HX024 (ip)
  survivor count: 7 of 8
dose: 64.0 mg/kg/injection, schedule: Q01DX009 (ip)
  survivor count: 7 of 8
dose: 64.0 mg/kg/injection, schedule: Q03HX008 (ip)
  survivor count: 7 of 8
dose: 64.0 mg/kg/injection, schedule: Q03HX016 (ip)
  survivor count: 7 of 8
dose: 64.0 mg/kg/injection, schedule: Q03HX024 (ip)
  survivor count: 8 of 8
dose: 64.0 mg/kg/injection, schedule: Q04DX003 (ip)
  survivor count: 8 of 8
dose: 64.0 mg/kg/injection, schedule: Q08DX002 (ip)
  survivor count: 8 of 8
dose: 128.0 mg/kg/injection, schedule: Q01DX001 (ip)
  survivor count: 8 of 8
dose: 128.0 mg/kg/injection, schedule: Q01DX009 (ip)
  survivor count: 8 of 8
dose: 128.0 mg/kg/injection, schedule: Q03HX008 (ip)
  survivor count: 1 of 8
dose: 128.0 mg/kg/injection, schedule: Q03HX016 (ip)
  survivor count: 0 of 8
dose: 128.0 mg/kg/injection, schedule: Q03HX024 (ip)
  survivor count: 0 of 8
dose: 128.0 mg/kg/injection, schedule: Q04DX003 (ip)
  survivor count: 8 of 8
dose: 128.0 mg/kg/injection, schedule: Q08DX002 (ip)
  survivor count: 8 of 8
dose: 256.0 mg/kg/injection, schedule: Q01DX001 (ip)
  survivor count: 8 of 8
dose: 256.0 mg/kg/injection, schedule: Q01DX009 (ip)
  survivor count: 7 of 8
dose: 256.0 mg/kg/injection, schedule: Q03HX008 (ip)
  survivor count: 0 of 8
dose: 256.0 mg/kg/injection, schedule: Q03HX016 (ip)
  survivor count: 0 of 8
dose: 256.0 mg/kg/injection, schedule: Q04DX003 (ip)
  survivor count: 8 of 8
dose: 256.0 mg/kg/injection, schedule: Q08DX002 (ip)
  survivor count: 8 of 8
dose: 512.0 mg/kg/injection, schedule: Q01DX001 (ip)
  survivor count: 8 of 8
dose: 512.0 mg/kg/injection, schedule: Q01DX009 (ip)
  survivor count: 0 of 8
dose: 512.0 mg/kg/injection, schedule: Q04DX003 (ip)
  survivor count: 5 of 8
dose: 512.0 mg/kg/injection, schedule: Q08DX002 (ip)
  survivor count: 6 of 8
dose: 1024.0 mg/kg/injection, schedule: Q01DX001 (ip)
  survivor count: 2 of 8
dose: 1024.0 mg/kg/injection, schedule: Q04DX003 (ip)
  survivor count: 1 of 8
dose: 1024.0 mg/kg/injection, schedule: Q08DX002 (ip)
  survivor count: 4 of 8
dose: 2048.0 mg/kg/injection, schedule: Q01DX001 (ip)
  survivor count: 1 of 8
dose: 2048.0 mg/kg/injection, schedule: Q08DX002 (ip)
  survivor count: 8 of 8
